Earlier results in patent US4246270A, “3-Fluorobenzodiazepines and compositions and uses thereof” (E. I. Du Pont de Nemours and Company, priority 1976, dated 1981).

Conditions: man and other animals; cited from earlier work

Compound: CN1C(=O)CN=C(c2ccccc2)c2cc(Cl)ccc21 [Diazepam, reference compound]
- metabolism: metabolized in man and other animals by oxidative attack at the 3-position
